Data on four substances can be found in patent US20240124528A1, “ANTAGONIST OF INTERLEUKIN-17B RECEPTOR (IL-17RB) AND USE THEREOF” (Academia Sinica, priority 2020, published 2024).

The chains behind the UniProt entries cited, without tags or fusion partners.
UniProt Q2M2I8: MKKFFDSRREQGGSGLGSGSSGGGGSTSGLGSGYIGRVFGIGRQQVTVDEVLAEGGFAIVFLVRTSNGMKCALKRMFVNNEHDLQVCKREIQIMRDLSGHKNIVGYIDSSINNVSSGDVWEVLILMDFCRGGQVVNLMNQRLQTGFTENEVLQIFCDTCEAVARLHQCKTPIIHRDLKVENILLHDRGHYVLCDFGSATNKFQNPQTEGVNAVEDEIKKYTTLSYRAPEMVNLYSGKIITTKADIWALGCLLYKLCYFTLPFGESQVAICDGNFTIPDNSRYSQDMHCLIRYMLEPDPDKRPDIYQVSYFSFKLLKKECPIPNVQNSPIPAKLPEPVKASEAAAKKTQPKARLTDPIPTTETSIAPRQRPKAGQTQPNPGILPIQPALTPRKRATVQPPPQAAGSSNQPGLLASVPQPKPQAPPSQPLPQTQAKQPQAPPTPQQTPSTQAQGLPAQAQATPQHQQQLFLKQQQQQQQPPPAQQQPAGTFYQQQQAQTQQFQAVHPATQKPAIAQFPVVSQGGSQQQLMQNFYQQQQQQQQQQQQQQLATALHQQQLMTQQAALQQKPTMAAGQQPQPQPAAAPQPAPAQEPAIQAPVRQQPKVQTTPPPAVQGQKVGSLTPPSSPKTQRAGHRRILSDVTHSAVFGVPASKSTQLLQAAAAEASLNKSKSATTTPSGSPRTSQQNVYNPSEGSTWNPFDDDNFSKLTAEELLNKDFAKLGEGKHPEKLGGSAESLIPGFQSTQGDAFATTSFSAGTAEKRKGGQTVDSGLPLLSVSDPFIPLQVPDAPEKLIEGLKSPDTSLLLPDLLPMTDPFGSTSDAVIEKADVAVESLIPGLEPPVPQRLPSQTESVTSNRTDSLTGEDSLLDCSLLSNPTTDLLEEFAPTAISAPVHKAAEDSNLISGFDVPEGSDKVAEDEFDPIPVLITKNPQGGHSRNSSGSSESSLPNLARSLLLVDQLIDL
UniProt O43734: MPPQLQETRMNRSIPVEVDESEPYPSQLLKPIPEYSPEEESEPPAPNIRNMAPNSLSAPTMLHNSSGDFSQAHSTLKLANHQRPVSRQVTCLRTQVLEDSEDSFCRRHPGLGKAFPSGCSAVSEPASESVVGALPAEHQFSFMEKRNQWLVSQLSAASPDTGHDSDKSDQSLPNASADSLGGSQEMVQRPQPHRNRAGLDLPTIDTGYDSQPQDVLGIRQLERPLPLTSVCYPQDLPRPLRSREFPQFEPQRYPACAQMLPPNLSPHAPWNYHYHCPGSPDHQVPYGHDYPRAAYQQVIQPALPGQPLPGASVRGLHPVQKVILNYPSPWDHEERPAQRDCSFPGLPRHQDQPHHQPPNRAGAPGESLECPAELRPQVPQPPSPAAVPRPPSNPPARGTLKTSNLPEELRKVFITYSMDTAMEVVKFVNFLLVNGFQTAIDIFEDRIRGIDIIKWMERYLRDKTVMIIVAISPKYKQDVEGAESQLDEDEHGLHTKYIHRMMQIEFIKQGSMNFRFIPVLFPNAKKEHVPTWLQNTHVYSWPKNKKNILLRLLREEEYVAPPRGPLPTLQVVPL
UniProt Q5TCX8: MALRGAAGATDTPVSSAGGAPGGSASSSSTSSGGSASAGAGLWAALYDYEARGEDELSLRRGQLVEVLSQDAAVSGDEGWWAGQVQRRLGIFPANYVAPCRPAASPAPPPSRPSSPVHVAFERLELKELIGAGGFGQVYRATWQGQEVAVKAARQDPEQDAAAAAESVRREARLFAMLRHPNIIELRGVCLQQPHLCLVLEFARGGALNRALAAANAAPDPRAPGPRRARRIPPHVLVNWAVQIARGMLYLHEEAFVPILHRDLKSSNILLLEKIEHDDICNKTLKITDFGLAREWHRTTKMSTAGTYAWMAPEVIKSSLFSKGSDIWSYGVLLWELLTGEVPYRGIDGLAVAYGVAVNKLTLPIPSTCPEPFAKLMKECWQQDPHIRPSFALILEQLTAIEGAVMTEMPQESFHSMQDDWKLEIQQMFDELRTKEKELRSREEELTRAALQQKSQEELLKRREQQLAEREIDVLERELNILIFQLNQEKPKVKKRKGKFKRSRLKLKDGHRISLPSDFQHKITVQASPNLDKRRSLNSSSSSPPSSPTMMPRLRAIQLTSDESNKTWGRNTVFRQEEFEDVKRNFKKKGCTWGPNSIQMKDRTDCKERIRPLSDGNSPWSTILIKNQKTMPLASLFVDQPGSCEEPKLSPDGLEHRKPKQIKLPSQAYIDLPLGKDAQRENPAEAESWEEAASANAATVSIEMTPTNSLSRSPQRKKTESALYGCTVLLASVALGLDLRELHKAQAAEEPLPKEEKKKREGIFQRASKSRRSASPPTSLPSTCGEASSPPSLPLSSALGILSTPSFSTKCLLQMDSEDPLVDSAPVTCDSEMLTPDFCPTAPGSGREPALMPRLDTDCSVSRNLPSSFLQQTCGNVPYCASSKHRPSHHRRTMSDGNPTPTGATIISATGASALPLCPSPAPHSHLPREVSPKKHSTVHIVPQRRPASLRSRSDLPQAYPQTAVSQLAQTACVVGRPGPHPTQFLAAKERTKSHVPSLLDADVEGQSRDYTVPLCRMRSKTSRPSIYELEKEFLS
UniProt Q86Z02: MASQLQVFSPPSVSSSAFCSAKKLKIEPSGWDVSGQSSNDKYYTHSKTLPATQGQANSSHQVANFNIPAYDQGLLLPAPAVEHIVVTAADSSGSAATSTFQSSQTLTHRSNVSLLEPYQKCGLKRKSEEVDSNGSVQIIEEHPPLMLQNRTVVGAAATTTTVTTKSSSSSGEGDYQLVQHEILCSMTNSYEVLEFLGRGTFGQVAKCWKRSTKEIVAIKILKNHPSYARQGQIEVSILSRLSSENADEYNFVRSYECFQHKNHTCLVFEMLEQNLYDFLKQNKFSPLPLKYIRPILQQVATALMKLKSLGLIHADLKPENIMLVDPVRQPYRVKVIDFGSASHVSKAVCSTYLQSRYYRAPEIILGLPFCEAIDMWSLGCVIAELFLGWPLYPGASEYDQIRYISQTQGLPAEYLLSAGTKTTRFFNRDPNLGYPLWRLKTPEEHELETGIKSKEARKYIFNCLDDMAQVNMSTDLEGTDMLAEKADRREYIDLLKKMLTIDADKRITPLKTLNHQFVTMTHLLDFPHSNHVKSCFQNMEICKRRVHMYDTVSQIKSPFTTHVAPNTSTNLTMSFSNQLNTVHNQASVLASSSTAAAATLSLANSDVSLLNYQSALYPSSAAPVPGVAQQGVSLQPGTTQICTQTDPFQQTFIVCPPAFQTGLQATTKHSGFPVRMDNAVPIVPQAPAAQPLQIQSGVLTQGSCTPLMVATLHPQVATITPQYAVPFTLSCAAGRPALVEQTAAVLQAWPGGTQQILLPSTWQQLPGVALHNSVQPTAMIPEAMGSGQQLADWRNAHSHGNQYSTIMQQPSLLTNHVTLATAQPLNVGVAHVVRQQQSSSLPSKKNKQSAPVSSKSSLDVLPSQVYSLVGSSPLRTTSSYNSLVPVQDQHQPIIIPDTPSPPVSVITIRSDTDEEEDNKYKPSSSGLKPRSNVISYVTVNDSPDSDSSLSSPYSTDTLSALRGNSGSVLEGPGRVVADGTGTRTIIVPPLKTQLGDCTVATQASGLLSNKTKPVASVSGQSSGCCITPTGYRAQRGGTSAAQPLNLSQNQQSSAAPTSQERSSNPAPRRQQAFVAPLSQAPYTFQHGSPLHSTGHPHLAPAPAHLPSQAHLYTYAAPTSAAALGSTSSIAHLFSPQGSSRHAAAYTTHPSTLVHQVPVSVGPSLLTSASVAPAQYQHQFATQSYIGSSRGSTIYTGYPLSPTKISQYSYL

The target in assay [1] is T1, interleukin-17 receptor B (IL-17RB), human, endogenous in pancreatic cancer cells (human) (UniProt Q9NRM6).
T1 sequence: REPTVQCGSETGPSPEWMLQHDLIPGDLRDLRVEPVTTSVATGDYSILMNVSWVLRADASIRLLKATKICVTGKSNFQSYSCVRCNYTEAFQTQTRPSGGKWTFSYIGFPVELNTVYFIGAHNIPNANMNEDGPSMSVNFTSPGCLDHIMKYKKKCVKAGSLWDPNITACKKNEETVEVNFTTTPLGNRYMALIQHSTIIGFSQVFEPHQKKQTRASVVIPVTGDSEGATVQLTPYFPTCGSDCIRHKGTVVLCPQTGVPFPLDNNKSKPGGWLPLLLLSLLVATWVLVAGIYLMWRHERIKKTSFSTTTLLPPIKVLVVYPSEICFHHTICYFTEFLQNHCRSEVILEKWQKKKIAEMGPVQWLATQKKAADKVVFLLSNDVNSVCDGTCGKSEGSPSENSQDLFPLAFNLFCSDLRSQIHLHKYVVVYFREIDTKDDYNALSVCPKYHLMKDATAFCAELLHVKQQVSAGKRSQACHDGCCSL
Briefly: co-IP with anti-IL-17RB, CFPAC1 cells, rIL-17B dose series, immunoblot (FIG. 3B). For orientation: In western blotting, separated proteins are transferred to a membrane and probed.

Assay [2] deals with T2, IL-17RB-Flag (Flag-tagged IL-17RB, wild type) (human) (UniProt Q9NRM6).
T2 sequence: T1 sequence
Briefly: co-IP with anti-Flag agarose, IL-17RB-KO BxPC3 cells, rIL-17B (FIG. 6G).

Assay [3] has as its target T3, IL-17RB ΔF423˜F430, HA-tagged (human) (UniProt Q9NRM6).
T3 sequence: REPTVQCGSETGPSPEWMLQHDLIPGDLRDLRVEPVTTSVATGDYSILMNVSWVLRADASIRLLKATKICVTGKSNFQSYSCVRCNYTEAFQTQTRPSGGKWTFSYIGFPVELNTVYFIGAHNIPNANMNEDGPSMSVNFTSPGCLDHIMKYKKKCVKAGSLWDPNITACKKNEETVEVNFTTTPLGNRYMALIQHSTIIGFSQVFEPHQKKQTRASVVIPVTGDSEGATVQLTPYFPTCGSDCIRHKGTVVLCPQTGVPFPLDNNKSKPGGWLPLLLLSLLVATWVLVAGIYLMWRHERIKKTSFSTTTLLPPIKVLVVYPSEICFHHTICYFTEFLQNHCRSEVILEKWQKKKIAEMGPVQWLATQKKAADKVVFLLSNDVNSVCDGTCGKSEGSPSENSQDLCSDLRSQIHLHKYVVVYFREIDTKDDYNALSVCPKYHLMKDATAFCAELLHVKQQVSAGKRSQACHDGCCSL
Briefly: reciprocal co-IP, 293T cells, rIL-17B (FIG. 5C); binding kept, inferred from 'alone'.

The target of assay [4] is T4, IL-17RB ΔH346˜F354, HA-tagged (human) (UniProt Q9NRM6).
T4 sequence: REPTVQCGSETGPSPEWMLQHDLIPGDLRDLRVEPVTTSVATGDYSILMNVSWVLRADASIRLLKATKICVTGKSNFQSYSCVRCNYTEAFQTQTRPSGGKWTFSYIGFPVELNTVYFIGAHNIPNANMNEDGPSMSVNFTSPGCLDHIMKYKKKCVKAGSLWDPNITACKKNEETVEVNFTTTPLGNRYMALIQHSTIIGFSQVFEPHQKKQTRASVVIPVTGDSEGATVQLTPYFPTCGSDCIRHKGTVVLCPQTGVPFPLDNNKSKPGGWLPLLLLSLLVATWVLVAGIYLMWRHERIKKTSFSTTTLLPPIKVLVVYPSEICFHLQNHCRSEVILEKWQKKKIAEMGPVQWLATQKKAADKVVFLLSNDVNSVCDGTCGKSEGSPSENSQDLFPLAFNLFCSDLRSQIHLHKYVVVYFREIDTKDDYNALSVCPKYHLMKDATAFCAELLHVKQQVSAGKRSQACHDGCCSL
The description is as above.

Assay [5] deals with T5, IL-17RB ΔI373˜T384, HA-tagged (human) (UniProt Q9NRM6).
T5 sequence: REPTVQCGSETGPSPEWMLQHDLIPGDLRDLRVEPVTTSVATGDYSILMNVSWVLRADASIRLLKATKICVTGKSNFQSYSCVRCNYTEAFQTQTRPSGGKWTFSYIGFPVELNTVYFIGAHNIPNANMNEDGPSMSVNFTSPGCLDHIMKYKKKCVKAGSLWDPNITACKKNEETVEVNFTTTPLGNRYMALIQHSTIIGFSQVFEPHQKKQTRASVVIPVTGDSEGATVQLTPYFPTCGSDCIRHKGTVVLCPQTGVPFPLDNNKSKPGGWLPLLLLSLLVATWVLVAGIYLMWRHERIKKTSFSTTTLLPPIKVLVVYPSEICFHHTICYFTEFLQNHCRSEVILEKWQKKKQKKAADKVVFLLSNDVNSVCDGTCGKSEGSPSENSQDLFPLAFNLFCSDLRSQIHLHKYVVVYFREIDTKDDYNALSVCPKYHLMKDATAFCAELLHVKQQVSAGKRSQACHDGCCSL
The assay is described as above.

In assay [6] the target is T6, IL-17RB ΔK470˜Q484, HA-tagged (human) (UniProt Q9NRM6).
T6 sequence: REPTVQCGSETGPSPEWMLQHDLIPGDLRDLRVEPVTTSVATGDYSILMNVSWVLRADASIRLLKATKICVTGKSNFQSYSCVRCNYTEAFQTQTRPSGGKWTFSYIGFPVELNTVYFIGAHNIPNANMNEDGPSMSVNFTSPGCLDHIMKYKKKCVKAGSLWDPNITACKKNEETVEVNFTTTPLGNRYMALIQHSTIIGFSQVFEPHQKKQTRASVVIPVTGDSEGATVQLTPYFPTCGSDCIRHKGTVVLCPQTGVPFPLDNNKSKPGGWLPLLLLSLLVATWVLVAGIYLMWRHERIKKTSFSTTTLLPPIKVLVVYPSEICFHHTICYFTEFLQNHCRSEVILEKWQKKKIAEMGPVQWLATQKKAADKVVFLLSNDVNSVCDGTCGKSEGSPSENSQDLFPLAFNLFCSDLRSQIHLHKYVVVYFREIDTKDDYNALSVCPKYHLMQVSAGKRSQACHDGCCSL
Described as above.

Assay [7] deals with T7, IL-17RB ΔN458˜V462, HA-tagged (human) (UniProt Q9NRM6).
T7 sequence: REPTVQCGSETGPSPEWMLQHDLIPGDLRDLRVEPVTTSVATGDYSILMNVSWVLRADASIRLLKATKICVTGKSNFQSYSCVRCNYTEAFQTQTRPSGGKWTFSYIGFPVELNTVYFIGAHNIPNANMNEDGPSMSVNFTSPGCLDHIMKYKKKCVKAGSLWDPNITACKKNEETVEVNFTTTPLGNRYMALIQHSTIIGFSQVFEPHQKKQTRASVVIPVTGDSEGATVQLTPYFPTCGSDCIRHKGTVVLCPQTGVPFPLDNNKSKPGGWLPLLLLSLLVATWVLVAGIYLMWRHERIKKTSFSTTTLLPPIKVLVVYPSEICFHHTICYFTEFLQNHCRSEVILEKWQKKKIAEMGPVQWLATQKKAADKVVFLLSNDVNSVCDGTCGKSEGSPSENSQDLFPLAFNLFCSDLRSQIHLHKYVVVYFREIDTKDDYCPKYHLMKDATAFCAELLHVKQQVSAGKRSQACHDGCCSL
The description is as above.

Assay [8] deals with T8, IL-17RB ΔQ484˜S502, HA-tagged (human) (UniProt Q9NRM6).
T8 sequence: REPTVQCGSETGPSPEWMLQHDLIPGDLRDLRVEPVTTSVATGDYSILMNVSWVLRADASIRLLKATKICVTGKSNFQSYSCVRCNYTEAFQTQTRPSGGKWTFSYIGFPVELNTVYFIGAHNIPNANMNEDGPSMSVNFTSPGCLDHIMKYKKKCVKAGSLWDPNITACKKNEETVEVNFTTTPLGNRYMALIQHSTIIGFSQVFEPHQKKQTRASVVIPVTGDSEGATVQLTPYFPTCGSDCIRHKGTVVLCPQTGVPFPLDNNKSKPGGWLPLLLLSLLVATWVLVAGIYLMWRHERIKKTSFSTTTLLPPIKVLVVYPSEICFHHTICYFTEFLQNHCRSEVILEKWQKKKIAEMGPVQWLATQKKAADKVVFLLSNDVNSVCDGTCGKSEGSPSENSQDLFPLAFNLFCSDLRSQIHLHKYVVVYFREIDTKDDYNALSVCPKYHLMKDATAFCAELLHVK
Described as above.

No constants are given. Whether binding was seen depends on the method and setting. In cells and extracts the contact can be indirect. Some binding calls cover weakened binding; strength is not graded here. For part of these data: Tags and fused reporters may be left off the sequences shown.

Turning to “AP2-associated protein kinase 1 (AAK1), endogenous (from UniProt Q2M2I8 1-961) (enzyme)”, the binding entry in assay [1] is given as “binds”.

As for “ACT1, endogenous (from UniProt O43734 1-574)”, the binding result in assay [2] is given as “binds”.

As for “Flag-MLK4 (from UniProt Q5TCX8 1-1036) (enzyme)”, the binding result in assay [3], in assay [4], in assay [5], in assay [6], in assay [7] and in assay [8] was “binds” throughout.

Turning to “homeodomain-interacting protein kinase 1 (HIPK1), endogenous (from UniProt Q86Z02 1-1210) (enzyme)”, the binding result in assay [1] is recorded as “binds”.
